Test results as given in the supplement of paper PMC10032668.
± gives the standard deviation of the averaged measurements. The list shows a part of the results. Only hits are listed; about a third recur on repeated control peptides.

How the values were obtained:
Assay in all cases: PRISMA enrichment of interactor (LFQ) in peptide spot vs all other peptide spots (log2 fold change); higher = stronger / more specific binding of the interactor to the peptide
[1] = molecular target: NDUFB10, O96000
Protocol: (§1)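 PRISMA: 15-aa overlapping tiles (offset 8 aa) of 60 microproteins, plus SOS1/GLUT1 control peptides, were spot-synthesized on cellulose membranes in triplicate. Membranes were incubated with benzonase-treated HEK293T lysate, and bound proteins were identified by LC-MS/MS with LFQ. Enrichment is the log2 fold change of each protein in one spot versus all other spots. Only interactors passing the significance cutoff are listed.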

[2] = molecular target: NDUFS5, O43920
Protocol: as §1

[3] = molecular target: NOL12, Q9UGY1
Protocol: as §1

[4] = molecular target: NOL7, Q9UMY1
Protocol: as §1

[5] = substrate: NOSIP, Q9Y314
Protocol: as §1

[6] = molecular target: NSFL1C, Q9UNZ2
Protocol: as §1

[7] = molecular target: PCLAF, Q15004
Protocol: as §1

[8] = molecular target: PSMC4, P43686
Protocol: as §1

[9] = molecular target: RBIS, Q8N0T1
Protocol: as §1

[10] = molecular target: RBMX, P38159
Protocol: as §1

[11] = molecular target: RIOK1, Q9BRS2
Protocol: as §1

[12] = molecular target: SERF1B, O75920
Protocol: as §1

[13] = molecular target: SERF2, P84101
Protocol: as §1

[14] = molecular target: SSNA1, O43805
Protocol: as §1

[15] = molecular target: ZNF593, O00488
Protocol: as §1

[16] = molecular target: hCG_2014768
Protocol: as §1

[17] = molecular target: ALYREF, Q86V81
Protocol: as §1

[18] = molecular target: ATG4B, Q9Y4P1
Protocol: as §1

[19] = molecular target: C19orf53, Q9UNZ5
Protocol: as §1

[20] = molecular target: CHTOP, Q9Y3Y2
Protocol: as §1

[21] = molecular target: CKS2, P33552
Protocol: as §1

[22] = molecular target: CSRP2, Q16527
Protocol: as §1

[23] = molecular target: DDX5, P17844
Protocol: as §1

[24] = molecular target: EWSR1, Q01844
Protocol: as §1

[25] = molecular target: FHL1, Q13642
Protocol: as §1

[26] = molecular target: G3BP2, Q9UN86
Protocol: as §1

[27] = molecular target: GABARAPL2, P60520
Protocol: as §1

[28] = molecular target: GOLIM4, O00461
Protocol: as §1

[29] = molecular target: HNRNPA0, Q13151
Protocol: as §1

[30] = molecular target: HNRNPA1, P09651
Protocol: as §1

[31] = molecular target: HNRNPA2B1, P22626
Protocol: as §1

[32] = molecular target: KHDRBS1, Q07666
Protocol: as §1

[33] = molecular target: LSM12, Q3MHD2
Protocol: as §1

[34] = molecular target: MRPL27, Q9P0M9
Protocol: as §1

[35] = molecular target: PUS1, Q9Y606
Protocol: as §1

Binder | PRISMA enrichment of interactor (log2) [1] | PRISMA enrichment of interactor (log2) [2] | PRISMA enrichment of interactor (log2) [3] | PRISMA enrichment of interactor (log2) [4] | PRISMA enrichment of interactor (log2) [5] | PRISMA enrichment of interactor (log2) [6] | PRISMA enrichment of interactor (log2) [7] | PRISMA enrichment of interactor (log2) [8] | PRISMA enrichment of interactor (log2) [9] | PRISMA enrichment of interactor (log2) [10] | PRISMA enrichment of interactor (log2) [11] | PRISMA enrichment of interactor (log2) [12] | PRISMA enrichment of interactor (log2) [13] | PRISMA enrichment of interactor (log2) [14] | PRISMA enrichment of interactor (log2) [15] | PRISMA enrichment of interactor (log2) [16] | PRISMA enrichment of interactor (log2) [17] | PRISMA enrichment of interactor (log2) [18] | PRISMA enrichment of interactor (log2) [19] | PRISMA enrichment of interactor (log2) [20] | PRISMA enrichment of interactor (log2) [21] | PRISMA enrichment of interactor (log2) [22] | PRISMA enrichment of interactor (log2) [23] | PRISMA enrichment of interactor (log2) [24] | PRISMA enrichment of interactor (log2) [25] | PRISMA enrichment of interactor (log2) [26] | PRISMA enrichment of interactor (log2) [27] | PRISMA enrichment of interactor (log2) [28] | PRISMA enrichment of interactor (log2) [29] | PRISMA enrichment of interactor (log2) [30] | PRISMA enrichment of interactor (log2) [31] | PRISMA enrichment of interactor (log2) [32] | PRISMA enrichment of interactor (log2) [33] | PRISMA enrichment of interactor (log2) [34] | PRISMA enrichment of interactor (log2) [35]
TCHCEQLLLLDDPGH [LINC01128] | 5.68 | 5.16 | 4.52 | 4.9 | 4.29 | 7.89 | 5.1 | 7.56 | 4.64 | 4.82 | 5.17 | 3.73 | 7.91 | 4.23 | 4.07 | 5.83 |  |  |  |  |  |  |  |  |  |  |  |  |  |  |  |  |  |  | 
AAWSFVQVFSEPDGF [PVT1] |  |  |  |  |  |  |  |  |  |  |  |  |  |  |  |  | 5.41 ± 0.31 | 6.93 | 7.09 | 6.2 | 5.2 | 6.07 | 6.4 | 5.97 | 4.23 | 6.05 | 5.86 | 4.77 | 5.75 | 5.96 | 4.7 | 6.37 | 5.14 | 8.46 | 5.03
